Data source: PubChem BioAssay AID743454 (Peter MacCallum Cancer Centre, 2014)
Aim: 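Genes whose loss kills vorinostat-resistant colon cancer cells under vorinostat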 (primary screen). Cells: human HCT116-VR colon cancer cells, selected for vorinostat resistance. Reagent: siRNA pool against human genes, 40 nM siRNA pool. Duration: vorinostat for 24 h, read-out about 72 h after transfection. Conditions: vorinostat at 2.5 µM final. Read-out: 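Two measures, CellTiter-Fluor viability and luminescent caspase 3/7 activity, each as fold change against same-plate mock wells, mean of duplicates, then screen-wide robust z-score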. Reading the numbers: viability robust z-score: higher = more viable cells than screen typical; caspase robust z-score: higher = more caspase 3/7 activity than screen typical. Active means: 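a knock-down is a hit when classed RV1 or RV2 for lowered viability, or CA1 or CA2 for caspase activation; those lethal without drug were dropped; hits were retested singly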.
The whole screen tested about 18,000 reagents; below is an unselected part. Over the whole deposit, 450 (2.5%) were called active. 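Single biological run; no consistent viability z cut-off exists, so the class columns, not z-scores, define the calls.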 A number with no mark means an inactive call.

target gene | PubChem SID | viability hit class | caspase hit class | viability robust z-score | caspase robust z-score
RPL37 | SID152154546 | no change | no change | -3.73 | -1.02
NPIPB15 | SID135625317 | no change | no change | -1.6 | -0.57
RPL23A | SID152152250 | no change | no change | -6.14 | -0.74
CFAP410 | SID152151149 | RV2 (reduced viability) (active) | no change | -3.7 | 0.11
PCYT1A | SID152150422 | no change | no change | -0.02 | -0.08
ARRB1 | SID135622233 | no change | no change | 1.17 | 2.05
H3C15 | SID135625600 | no change | no change | -1.34 | 0.97
AMER1 | SID135623077 | no change | no change | -1.32 | 0.42
CLK2 | SID152151259 | no change | no change | -0.09 | -0.42
SLC67A2 | SID134312405 | no change | no change | 0.04 | -0.11
TYK2 | SID135620633 | no change | no change | -2.06 | 3.19
BEX5 | SID152154379 | no change | no change | -1.93 | 2.01
TSPAN3 | SID135622000 | no change | no change | 0.82 | 0.78
NANOS1 | SID152153890 | no change | no change | 0.16 | 1.42
HTR5A | SID135621038 | no change | no change | 0.35 | -0.76
YKT6 | SID134323042 | no change | no change | -0.76 | 0.72
RNF135 | SID135621311 | no change | no change | -0.85 | 1.42
ZFAND4 | SID134321671 | no change | no change | -0.12 | -0.72
MLLT3 | SID135623842 | no change | no change | 1.81 | -0.63
ADRA1B | SID135620984 | no change | no change | -1.1 | 1.91
MSH5 | SID152152352 | no change | no change | 0.84 | 1.43
TACC1 | SID135620948 | no change (active) | CA1 (caspase activation) | -1.15 | 7.63
H1-4 | SID134316346 | no change | no change | -0.85 | 0.22
VPS50 | SID134317168 | no change | no change | -0.29 | -0.69
GPR31 | SID152155730 | no change | no change | -1.17 | 2.49
CFLAR | SID134310071 | no change | no change | -1.29 | -0.41
RSL24D1 | SID134317404 | no change | no change | -3.16 | 1.42
LILRB5 | SID135623377 | no change | no change | 0.41 | -0.1
SI | SID152149485 | no change | no change | -1.31 | -1.02
PLCB4 | SID134314325 | no change | no change | -0.72 | 0.76
NTS | SID134314786 | no change | no change | 0.76 | -0.01
TM2D2 | SID135622442 | no change | no change | -1.12 | -0.77
CEACAM16 | SID152147022 | no change | no change | 1.46 | 0.94
FUT3 | SID152146899 | no change | no change | 0.78 | -0.45
ADCY1 | SID134311984 | no change | no change | -0.16 | 2.07
CEP68 | SID152148208 | no change | no change | -0.76 | -0.68
TULP4 | SID152151743 | no change | no change | 1.12 | -0.99
NME1 | SID56479166 | no change | no change | 0.31 | -0.49
MICALL2 | SID152147720 | no change (active) | CA1 (caspase activation) | 0.62 | 5.14

Active calls, of those listed so far:
target gene | PubChem SID | viability hit class | caspase hit class | viability robust z-score | caspase robust z-score
CFAP410 | SID152151149 | RV2 (reduced viability) (active) | no change | -3.7 | 0.11
TACC1 | SID135620948 | no change (active) | CA1 (caspase activation) | -1.15 | 7.63
MICALL2 | SID152147720 | no change (active) | CA1 (caspase activation) | 0.62 | 5.14
